# Test results reported in PubChem BioAssay AID1224862 (National Center for Advancing Translational Sciences (NCATS), 2016).
# Inconclusive results, whose numbers are uncertain, are shown with a selection of clear calls. Potencies beside an inconclusive call are fits to weak or partial responses and may not hold up. Active and inactive are the calls of the source. Calls follow the shape of the dose curve; as a rule, active = well fitted cell-killing curve with a large enough effect; inconclusive = small, poorly fitted or top-dose-only effect, or effect the other way; inactive = flat fitted curve, though single readings scatter.
# Assay: Compound cytotoxicity measured by an ATP content assay as a counter-screen for lead compounds in human astrocytoma cell line (SNB-19)
# Conditions: SNB-19 astrocytoma viability, ATP luminescence; series mostly up to 46.1 µM; activity change, negative = cytotoxicity: at the top concentration
# Protocol: National Center for Advancing Translational Sciences [NCATS] Johns Hopkins University School of Medicine Florida State University Assay Overview: Many compounds can cause cytotoxicity at high compound concentrations. […] The compound cytotoxicity may also cause side effects or toxicity in human. Thus, the compound cytotoxicity needs to be measured in each cell type and each compound incubation time - same as these in the compound screening assay. The compound cytotoxicity can be measured by cell viability assays such as the ATP content assay. We use an ATP content assay kit for cell viability measurement. It measures ATP content (level) in human astrocytoma cell line (SNB-19) using a luminescence readout that is proportional to viable cell numbers. Decrease in the luminescence signal after the compound treatment indicates reduced cell viability and cell death caused by compound treatment.
# Assay Protocol Summary: The medium for SNB-19 cells is composed of RPMI 1640 (ATCC, Cat.# 30-2001), 10% fetal bovine serum (FBS) (GE healthcare Life Sciences, Cat.# SH30071.03), and 1% Pen/Strep (Gibco, Cat.# 15140-122). The ATP content assay kit (PerkinElmer, Cat.# 6016731) was used to determine cell viability. The reagent was reconstituted and prepared as described by the manufacturer. Cells were seeded in 384- or 1536-well assay plates and cultured at 37 C with 5% CO2 for 16 to 20 hours. The typical cell seeding density in the 1536-well plate assay is 250 cells/well in 3ul medium for SNB-19 cells in tissue culture treated plates. Compounds were added to cells and incubated for a specific time such as 6, 24, or 72 hours before addition of the reagent mixture of the ATP content assay kit at 1:1 ratio. After incubation at room temperature for 10 minutes, the luminescence intensity in assay plates was measured using a ViewLux plate reader (PerkinElmer). […] The percentage inhibitions of the decreased cell viability by small molecules were then calculated that indicate compound cytotoxicity.
Structure (SMILES),"activity change, negative = cytotoxicity",Potency
N#CC1(c2ccc(NC(=O)c3cccnc3NCc3ccncc3)cc2)CCCC1,inactive: -12.2%,
c1ccc2[nH]c(-c3cscn3)nc2c1,,"inconclusive: 15.5 µM [cytotoxic, partial curve, poor fit]"
N[C@H](CSC(c1ccccc1)(c1ccccc1)c1ccccc1)C(=O)O,,"inconclusive: 24.5 µM [rising, partial curve, poor fit]"
C/C(=N\O)c1ccc(OCC(=O)N2CCCCC2)cc1,,"inconclusive: 19.5 µM [cytotoxic, single point]"
COc1ccc(/C=C/C(=O)Nc2ccccc2C(=O)O)cc1OC,,"inconclusive: 19.5 µM [cytotoxic, partial curve, poor fit]"
Oc1cc(O)cc(/C=C/c2ccc(O)c(O)c2)c1,,active: 24.5 µM
CCCSc1ccc2nc(NC(=O)OC)[nH]c2c1,,"inconclusive: 17.3 µM [cytotoxic, partial curve]"
Cc1ccc2c(n1)Oc1ccc(C(C)C(=O)OCC(=O)N(C)C)cc1C2 (stereo not given),,"inconclusive: 13.8 µM [cytotoxic, partial curve]"
CCOCCOC(=O)/C=C/c1ccc(OC)cc1,inactive: 15.8%,
Cc1c(NC(=O)c2ccc(C(C)(C)C)cc2)cccc1-c1cn(C)c(=O)c(Nc2ccc(C(=O)N3CCOCC3)cc2)n1,inactive: -5.55%,
CC(=NNC(=S)N1CCC1)c1ccccn1,inactive: 10.5%,
O=C(Nc1cc2cc[nH]c2cn1)c1ccccc1,,active: 0.388 µM
COc1ccc(NC(=O)/C=C/c2ccc(Cl)cc2)cc1,,"inconclusive: 21.8 µM [cytotoxic, partial curve]"
Cc1nc(-c2ccc(OCC(C)C)c(C#N)c2)sc1C(=O)O,,"inconclusive: 24.5 µM [cytotoxic, partial curve]"
CCCCCCOc1ccccc1C(N)=O,,"inconclusive: 0.069 µM [rising, partial curve, poor fit]"
O=c1[nH]nc(Sc2ncc([N+](=O)[O-])s2)n1-c1ccc2c(c1)OCCO2,,active: 4.89 µM
Cc1cc(O)c2ccccc2c1O,,"inconclusive: 21.8 µM [cytotoxic, single point]"
O=C1C[C@@H](c2ccc(O)cc2)Oc2cc(O)cc(O)c21,inactive: -5.2%,
COc1cccc(-c2ccc(NC(=O)C3=C(C(=O)O)CCC3)c(F)c2)c1,,"inconclusive: 9.75 µM [cytotoxic, partial curve]"
COc1cccc(-c2cc(=O)c3ccccc3o2)c1N,,"inconclusive: 19.5 µM [cytotoxic, partial curve]"

# Structures above with an aryl thioether with sulfur outside any ring:
Structure (SMILES),"activity change, negative = cytotoxicity",Potency
CCCSc1ccc2nc(NC(=O)OC)[nH]c2c1,,"inconclusive: 17.3 µM [cytotoxic, partial curve]"
O=c1[nH]nc(Sc2ncc([N+](=O)[O-])s2)n1-c1ccc2c(c1)OCCO2,,active: 4.89 µM

# Remaining list, next part

Structure (SMILES),"activity change, negative = cytotoxicity",Potency
CO[C@H]1C(=O)[C@]2(C)[C@@H](OC)C[C@H]3OC[C@@]3(OC(C)=O)[C@H]2[C@H](OC(=O)c2ccccc2)[C@]2(O)C[C@H](OC(=O)[C@H](O)[C@@H](NC(=O)OC(C)(C)C)c3ccccc3)C(C)=C1C2(C)C,inactive: 8.56%,
Nc1ccc(-c2ccc3ccccc3n2)cc1,,"inconclusive: 7.74 µM [cytotoxic, full curve]"
CCN(CC)c1ccc(C(=C2C=CC(=[N+](CC)CC)C=C2)c2cc(S(=O)(=O)O)ccc2S(=O)(=O)[O-])cc1,,"inconclusive: 21.8 µM [cytotoxic, partial curve]"
O=C(O)c1cccc(-c2noc(-c3ccccc3F)n2)c1,,active: 5.48 µM
CS(=O)(=O)c1ccc(-c2cn3ccccc3n2)cc1,,active: 12.3 µM
Nc1ccc2c(c1)CN1C(=O)c3ccccc3C1=N2,,"inconclusive: 5.99 µM [cytotoxic, partial curve]"
NC(=O)c1cccc2[nH]c(-c3ccc([C@H]4CCCN4)cc3F)nc12,,active: 5.48 µM
CC(=Cc1ccccc1)C=C1SC(=S)N(CC(=O)O)C1=O,,"inconclusive: 27.5 µM [cytotoxic, single point]"
Nc1c(S(=O)(=O)O)cc(Nc2ccc(Nc3nc(Cl)nc(Nc4ccc(S(=O)(=O)O)cc4)n3)c(S(=O)(=O)O)c2)c2c1C(=O)c1ccccc1C2=O,,"inconclusive: 7.74 µM [cytotoxic, full curve]"
CCCCC1C(=O)N(c2ccccc2)N(c2ccc(O)cc2)C1=O (stereo not given),,"inconclusive: 30.8 µM [rising, single point]"
Cc1c(C(=O)O)c(O)cc2c1C(=O)c1c(O)c([C@@H]3O[C@H](CO)[C@@H](O)[C@H](O)[C@H]3O)c(O)c(O)c1C2=O,,"inconclusive: 27.5 µM [cytotoxic, single point]"
CCC(C(=O)O)c1ccc(N2Cc3ccccc3C2=O)cc1 (stereo not given),inactive: -10.4%,
Cc1csc(NC(=O)c2sc3nc4c(c(C(F)(F)F)c3c2N)CCC4)n1,,active: 4.35 µM
O=c1c2ccccc2nc2n1CCc1c-2[nH]c2ccccc12,,"inconclusive: 17.3 µM [cytotoxic, single point]"
C=C1C(=O)[C@@]23C(CC[C@@H]1[C@H]2O)[C@@]12CO[C@]3(O)[C@@H](O)[C@@H]1C(C)(C)CC[C@@H]2O (stereo not given in full),,"inconclusive: 3.46 µM [rising, partial curve, poor fit]"
O=C(/C=C/c1ccc(O)cc1)c1ccc(O)cc1O,,"inconclusive: 27.5 µM [rising, single point]"
CC1(C)OC2=C(C(=O)c3ccccc3C2=O)[C@H](NCc2ccccc2)[C@H]1O,,active: 8.91 µM
Oc1ccc(/C=C/c2cc(O)cc(O)c2)cc1,,active: 24.5 µM
O=c1cc(-c2ccccc2)oc2cc(O)cc(O)c12,,"inconclusive: 5.48 µM [rising, partial curve]"
CC(C)c1ccc2oc3nc(N)c(C(=O)O)cc3c(=O)c2c1,,active: 1.55 µM
